Data on one compound can be found in USRE40198E1, “Method and device for electrochemical immunoassay of multiple analytes” (Roche Diagnostics Operations, Inc., priority 1998, dated 2008).

The series in a line: Steady state current of mediator conjugates on IDA electrodes with bipotentiostatic control. The settings on record: 40 uM.

With `O=C(CCCCC1SCC2NC(=O)NC21)NCCOCCOCCNC(=O)C1CCC(CNC(=O)[c-]2cccc2)CC1.[Fe+2].c1cc[cH-]c1` (stereo not shown) [Fc-Bi], the “Ratio of response Warm/RT” value is 1.5.
